Patent publication US20250248376A1 (University of Texas, published 2025)
No constants are given. Whether binding was seen depends on the method and setting. Binding calls can cover weak binding; strength is not graded here. For some assays here: In cells and extracts the contact can be indirect.

How the values were obtained:
Contactin (mouse Cntn1) [1] = target: T1, Contactin (mouse Cntn1) (mouse, UniProt P12960 21-1001); assay: in vitro biochemical analysis, co-expression with Contactin in HEK cells (discussion)
T1 construct: whole, on cells; One entry covers both endogenous spinal cord Contactin and Contactin transfected into HEK cells; It was immunoprecipitated from lysates with anti-Contactin antibodies; also called Contactin/F3
T1 sequence (looked up): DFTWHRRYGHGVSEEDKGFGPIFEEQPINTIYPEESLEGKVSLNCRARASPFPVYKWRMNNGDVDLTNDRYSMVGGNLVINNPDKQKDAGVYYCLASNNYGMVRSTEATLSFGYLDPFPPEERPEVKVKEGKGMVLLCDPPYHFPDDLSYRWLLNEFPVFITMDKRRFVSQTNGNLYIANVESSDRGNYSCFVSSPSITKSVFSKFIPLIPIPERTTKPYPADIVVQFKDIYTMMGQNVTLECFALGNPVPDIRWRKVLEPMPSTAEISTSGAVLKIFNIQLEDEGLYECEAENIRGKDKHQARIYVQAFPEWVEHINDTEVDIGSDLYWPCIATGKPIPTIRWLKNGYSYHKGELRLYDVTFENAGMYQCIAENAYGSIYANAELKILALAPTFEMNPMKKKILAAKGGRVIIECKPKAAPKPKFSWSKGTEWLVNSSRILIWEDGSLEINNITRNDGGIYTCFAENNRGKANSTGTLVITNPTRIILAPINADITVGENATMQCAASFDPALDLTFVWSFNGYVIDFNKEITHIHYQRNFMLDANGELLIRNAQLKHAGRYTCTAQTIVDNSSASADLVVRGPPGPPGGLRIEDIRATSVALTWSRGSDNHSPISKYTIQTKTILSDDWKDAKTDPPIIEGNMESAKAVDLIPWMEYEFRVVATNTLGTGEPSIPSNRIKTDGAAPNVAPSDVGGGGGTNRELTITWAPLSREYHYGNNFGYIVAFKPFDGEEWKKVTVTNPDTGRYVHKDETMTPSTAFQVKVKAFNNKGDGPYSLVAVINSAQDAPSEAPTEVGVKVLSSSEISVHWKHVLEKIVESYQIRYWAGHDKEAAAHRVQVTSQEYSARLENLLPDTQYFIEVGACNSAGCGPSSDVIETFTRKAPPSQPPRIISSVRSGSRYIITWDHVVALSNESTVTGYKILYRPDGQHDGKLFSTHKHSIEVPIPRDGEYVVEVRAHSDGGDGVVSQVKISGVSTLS

Contactin (mouse Cntn1) [2] = target: T1, Contactin (mouse Cntn1); assay: co-IP with anti-Contactin antibodies from lysates of co-transfected HEK cells (FIG. 17J)

binding (Contactin (mouse Cntn1) [1]): binds | binding (Contactin (mouse Cntn1) [2]): binds
Substance: wild-type Cntnap1^Flag expressed in HEK cells from pCMV-Cntnap1^Flag (OriGene MR223061) (receptor)
